PMC7086355
No constants are given. Whether binding was seen depends on the method and setting. In cells and extracts the contact can be indirect. Some binding calls cover weakened binding; strength is not graded here. For some of these results: Tags and fused reporters may be left off the sequences shown.

Protein sequences, listed by entry. Tags and fused reporters are not part of them.
UniProt Q99104: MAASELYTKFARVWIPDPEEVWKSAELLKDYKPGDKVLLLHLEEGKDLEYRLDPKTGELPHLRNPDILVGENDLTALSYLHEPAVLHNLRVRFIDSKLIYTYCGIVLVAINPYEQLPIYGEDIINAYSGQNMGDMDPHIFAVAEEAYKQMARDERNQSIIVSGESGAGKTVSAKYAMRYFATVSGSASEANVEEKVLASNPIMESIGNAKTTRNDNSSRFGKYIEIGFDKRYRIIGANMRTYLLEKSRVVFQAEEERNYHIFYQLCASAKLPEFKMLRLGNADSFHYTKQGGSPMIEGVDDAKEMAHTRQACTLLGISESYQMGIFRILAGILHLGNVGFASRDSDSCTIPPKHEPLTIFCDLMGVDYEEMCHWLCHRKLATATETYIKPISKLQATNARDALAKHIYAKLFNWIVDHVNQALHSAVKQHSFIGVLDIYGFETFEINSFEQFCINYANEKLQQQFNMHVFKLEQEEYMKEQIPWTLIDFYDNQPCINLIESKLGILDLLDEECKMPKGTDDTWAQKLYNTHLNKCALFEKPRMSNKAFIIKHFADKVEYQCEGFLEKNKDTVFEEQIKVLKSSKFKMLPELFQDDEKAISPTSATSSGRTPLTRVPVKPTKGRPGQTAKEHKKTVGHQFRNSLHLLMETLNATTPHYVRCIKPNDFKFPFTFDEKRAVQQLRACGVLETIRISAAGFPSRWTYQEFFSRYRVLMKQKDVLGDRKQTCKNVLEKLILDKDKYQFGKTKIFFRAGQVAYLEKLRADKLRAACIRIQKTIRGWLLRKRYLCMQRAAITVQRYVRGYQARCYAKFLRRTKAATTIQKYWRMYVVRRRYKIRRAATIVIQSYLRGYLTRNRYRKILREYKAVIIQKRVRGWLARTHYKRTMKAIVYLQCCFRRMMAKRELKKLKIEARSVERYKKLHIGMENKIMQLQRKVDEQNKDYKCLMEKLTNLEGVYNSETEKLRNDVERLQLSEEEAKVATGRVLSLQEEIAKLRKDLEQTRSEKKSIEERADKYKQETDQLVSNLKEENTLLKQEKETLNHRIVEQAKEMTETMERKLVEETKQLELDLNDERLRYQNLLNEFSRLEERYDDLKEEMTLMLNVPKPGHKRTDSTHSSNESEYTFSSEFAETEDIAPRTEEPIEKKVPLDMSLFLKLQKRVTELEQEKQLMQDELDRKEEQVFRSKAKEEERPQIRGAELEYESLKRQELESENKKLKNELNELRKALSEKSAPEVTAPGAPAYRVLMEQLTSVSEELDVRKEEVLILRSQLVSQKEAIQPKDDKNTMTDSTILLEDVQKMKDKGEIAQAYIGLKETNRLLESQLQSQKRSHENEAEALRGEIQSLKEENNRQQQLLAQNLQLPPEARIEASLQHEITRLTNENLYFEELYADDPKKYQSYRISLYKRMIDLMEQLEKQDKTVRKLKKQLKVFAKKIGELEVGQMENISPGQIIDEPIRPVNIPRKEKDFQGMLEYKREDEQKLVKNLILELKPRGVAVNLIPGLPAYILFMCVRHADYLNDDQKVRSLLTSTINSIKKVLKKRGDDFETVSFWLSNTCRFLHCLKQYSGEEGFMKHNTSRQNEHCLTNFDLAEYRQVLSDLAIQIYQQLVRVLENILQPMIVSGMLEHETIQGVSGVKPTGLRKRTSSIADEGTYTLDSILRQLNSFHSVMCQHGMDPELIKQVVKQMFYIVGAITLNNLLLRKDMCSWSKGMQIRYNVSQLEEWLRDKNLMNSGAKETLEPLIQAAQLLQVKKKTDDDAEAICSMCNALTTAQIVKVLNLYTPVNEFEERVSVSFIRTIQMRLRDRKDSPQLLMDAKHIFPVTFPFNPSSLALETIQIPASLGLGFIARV

Tests used:
[1] = target: T1, Rab27a (mouse (endogenous in Melan-a)) (UniProt Q9ERI2); test: proximity ligation; Duolink in situ PLA on fixed Melan-a melanocytes, primary antibodies 1:50 overnight 4 °C, anti-rabbit plus and anti-mouse minus probes, fluorescence microscopy
T1 sequence: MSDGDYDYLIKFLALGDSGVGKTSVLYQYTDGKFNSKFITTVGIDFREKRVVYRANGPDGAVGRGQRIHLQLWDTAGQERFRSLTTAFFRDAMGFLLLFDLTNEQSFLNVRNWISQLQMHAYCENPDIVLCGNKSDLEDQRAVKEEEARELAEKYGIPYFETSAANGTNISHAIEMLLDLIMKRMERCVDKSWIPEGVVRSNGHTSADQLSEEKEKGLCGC

[2] = target: T2, Melanophilin (mouse (endogenous in Melan-a)) (UniProt Q91V27); test: as above
T2 sequence: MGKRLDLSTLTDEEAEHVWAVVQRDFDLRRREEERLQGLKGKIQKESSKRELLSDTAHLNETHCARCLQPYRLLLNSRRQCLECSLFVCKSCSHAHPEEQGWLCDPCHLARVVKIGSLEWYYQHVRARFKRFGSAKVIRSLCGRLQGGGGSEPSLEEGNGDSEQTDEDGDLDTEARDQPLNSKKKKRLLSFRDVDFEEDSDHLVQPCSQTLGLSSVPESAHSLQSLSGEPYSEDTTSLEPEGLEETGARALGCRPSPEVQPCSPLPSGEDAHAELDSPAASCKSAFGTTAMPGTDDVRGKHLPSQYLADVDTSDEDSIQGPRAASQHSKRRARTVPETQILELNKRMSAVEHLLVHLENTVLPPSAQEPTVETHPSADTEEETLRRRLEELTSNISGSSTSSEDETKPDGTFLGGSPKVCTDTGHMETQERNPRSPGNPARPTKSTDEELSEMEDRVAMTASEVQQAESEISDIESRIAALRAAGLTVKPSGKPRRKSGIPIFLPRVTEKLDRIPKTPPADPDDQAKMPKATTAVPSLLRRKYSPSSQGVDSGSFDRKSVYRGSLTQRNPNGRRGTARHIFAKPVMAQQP

[3] = target: Myosin-Va (mouse (endogenous in Melan-a)) (UniProt Q99104); test: as above
[4] = target: T1, Rab27a (mouse (endogenous in Melan-a)); test: co-IP; whole cell lysates of Melan-a melanocytes, endogenous proteins; specific antibodies on protein A plus agarose beads, 4 °C overnight, western blot; control cells and cells with siMlph (20 nM, 72 h), Leaden (Mlph mutant) cells, Rab3GEP siRNA (50 nM), siPHB (20 nM)
[5] = target: T3, 6xHis-PHB expressed in COS7 cells (mouse) (UniProt P67778); test: co-IP; COS7 monkey kidney cells transfected with PHB and Mlph plasmids; anti-histidine IP for 3 h at 4 °C, western blot
T3 sequence: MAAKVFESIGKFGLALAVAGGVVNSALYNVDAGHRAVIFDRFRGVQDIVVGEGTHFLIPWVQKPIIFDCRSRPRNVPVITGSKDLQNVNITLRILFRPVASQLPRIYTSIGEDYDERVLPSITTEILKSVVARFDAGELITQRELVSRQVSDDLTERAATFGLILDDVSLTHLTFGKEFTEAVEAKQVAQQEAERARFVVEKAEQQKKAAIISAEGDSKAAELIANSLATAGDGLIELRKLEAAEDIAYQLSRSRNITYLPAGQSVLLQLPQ

[6] = target: T4, transmembrane domain of PHB (amino acids 1-40), 6x histidine tagged (mouse) (UniProt P67778); test: pull-down; purified His-tagged PHB (wild type or domain) mixed with whole cell extracts of Mlph- or Rab27a-transfected COS7 cells; poly-histidine antibody at 4 °C overnight, then protein A plus agarose beads 1 h at 4 °C; western blot; only the target purified
T4 sequence: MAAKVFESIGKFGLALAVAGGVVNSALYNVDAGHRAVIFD

[7] = target: T5, prohibitin domain of PHB (amino acids 41-173), 6x histidine tagged (mouse) (UniProt P67778); test: as above
T5 sequence: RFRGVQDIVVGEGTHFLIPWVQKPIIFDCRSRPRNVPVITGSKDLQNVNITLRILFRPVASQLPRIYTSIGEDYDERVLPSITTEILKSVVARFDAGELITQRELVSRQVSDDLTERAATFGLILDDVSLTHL

B1: Prohibitin (protein, UniProt P67778 1-272)
chain: MAAKVFESIGKFGLALAVAGGVVNSALYNVDAGHRAVIFDRFRGVQDIVVGEGTHFLIPWVQKPIIFDCRSRPRNVPVITGSKDLQNVNITLRILFRPVASQLPRIYTSIGEDYDERVLPSITTEILKSVVARFDAGELITQRELVSRQVSDDLTERAATFGLILDDVSLTHLTFGKEFTEAVEAKQVAQQEAERARFVVEKAEQQKKAAIISAEGDSKAAELIANSLATAGDGLIELRKLEAAEDIAYQLSRSRNITYLPAGQSVLLQLPQ
B1 was tested, and the binding [1] was “binds”, the binding [2] was “binds” and the binding [3] was “no binding”. The binding [4] was “binds”.

B2: T7-Mlph (protein, UniProt Q91V27 1-590)
chain: MGKRLDLSTLTDEEAEHVWAVVQRDFDLRRREEERLQGLKGKIQKESSKRELLSDTAHLNETHCARCLQPYRLLLNSRRQCLECSLFVCKSCSHAHPEEQGWLCDPCHLARVVKIGSLEWYYQHVRARFKRFGSAKVIRSLCGRLQGGGGSEPSLEEGNGDSEQTDEDGDLDTEARDQPLNSKKKKRLLSFRDVDFEEDSDHLVQPCSQTLGLSSVPESAHSLQSLSGEPYSEDTTSLEPEGLEETGARALGCRPSPEVQPCSPLPSGEDAHAELDSPAASCKSAFGTTAMPGTDDVRGKHLPSQYLADVDTSDEDSIQGPRAASQHSKRRARTVPETQILELNKRMSAVEHLLVHLENTVLPPSAQEPTVETHPSADTEEETLRRRLEELTSNISGSSTSSEDETKPDGTFLGGSPKVCTDTGHMETQERNPRSPGNPARPTKSTDEELSEMEDRVAMTASEVQQAESEISDIESRIAALRAAGLTVKPSGKPRRKSGIPIFLPRVTEKLDRIPKTPPADPDDQAKMPKATTAVPSLLRRKYSPSSQGVDSGSFDRKSVYRGSLTQRNPNGRRGTARHIFAKPVMAQQP
For B2, the binding [5] was “binds” and the binding [6] was “binds”.

B3: FLAG-Rab27a (protein, UniProt Q9ERI2 1-221)
chain: MSDGDYDYLIKFLALGDSGVGKTSVLYQYTDGKFNSKFITTVGIDFREKRVVYRANGPDGAVGRGQRIHLQLWDTAGQERFRSLTTAFFRDAMGFLLLFDLTNEQSFLNVRNWISQLQMHAYCENPDIVLCGNKSDLEDQRAVKEEEARELAEKYGIPYFETSAANGTNISHAIEMLLDLIMKRMERCVDKSWIPEGVVRSNGHTSADQLSEEKEKGLCGC
In the case of B3, the binding [7] is reported as “binds”.
